Results reported in PubChem BioAssay AID493014 (National Center for Advancing Translational Sciences (NCATS), 2011).
Some of the results follow. These are further read-outs of the screen, such as a control signal, another cell line or another target. No call is given for them. Most of these compounds were active or inconclusive in the main read-out, so they are no random draw. The note in brackets gives the kind of curve behind each potency; many fits are weak.

Assay: qHTS Assay to Find Inhibitors of Chronic Active B-Cell Receptor Signaling
Conditions: ABC-DLBCL IkBa-CBG/CBR reporter, luminescence ratio (green luciferase fused to IkBa over red control in TMD8 lymphoma cells), 4 h
Method in brief: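 Doxycycline induced both beetle luciferases in TMD8 lymphoma cells; IKK-driven degradation limits the IkappaBalpha-fused green signal, while red luminescence normalises for cell number and nonspecific effects. Compounds tested up to 46 uM, 4 hrs.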

[1] = measured here: CBR red luminescence, cell number
[2] = measured here: IkBa-CBG green luminescence

Row | Structure (SMILES) | AC50 [1] | AC50 [2]
1 | COc1ccc(/C=C/c2noc(-c3ccccc3O)n2)cc1 | 5.17 µM [falling, full curve] | 
2 | O=C(OCc1cc2ccccc2[nH]c1=O)C1CCCCC1 | 11.2 µM [rising, partial curve, poor fit] | 
3 | NS(=O)(=O)c1ccc(-c2cccc(/C=C3\SC(=O)NC3=O)c2)cc1 | 7.08 µM [falling, partial curve, poor fit] | 
4 | Cn1c(=O)c2c(ncn2CC(=O)OCC(=O)NCc2ccc(Cl)cc2)n(C)c1=O | 13 µM [falling, partial curve, poor fit] | 
5 | CCCSC1=C(C#N)C(c2ccccc2OCC)CC(=O)N1 (stereo not drawn) | 6.51 µM [falling, partial curve, poor fit] | 
6 | Cc1nn(-c2ncc(C(F)(F)F)cc2Cl)c(=O)n1-c1cccc(Cl)c1 | 20.6 µM [rising, single point] | 
7 | N#Cc1c(-c2ccccc2)c(-c2ccccc2)nn(CC(=O)NNC(=O)Nc2ccccc2)c1=O | 2.82 µM [rising, partial curve, poor fit] | 
8 | Cc1ccc(-c2ccc(/C=N/O)o2)cc1[N+](=O)[O-] | 2.51 µM [rising, full curve] | 
9 | CCc1nnc(N/N=C/c2cc(Br)c(O)cc2O)n1N | 35.5 µM [falling, single point] | 
10 | CCC(=Nc1ccccc1O)C1=C(O)CC(c2ccccc2)CC1=O (stereo not drawn) | 11.2 µM [falling, partial curve] | 
11 | CCN(CC)Cc1c(O)ccc2occ(C(=O)c3ccc(OC)cc3)c12 | 32.6 µM [falling, single point] | 
12 | Cc1ccc(CSc2nc3ccccc3cc2C=O)cc1 | 3.16 µM [rising, full curve] | 3.16 µM [falling, full curve, poor fit]
13 | Cc1ccccc1OCCn1c(=S)[nH]c2ccccc21 | 5.62 µM [rising, partial curve, poor fit] | 
14 | CCOc1cc(C(=O)Nc2ccc3c4c(cccc24)C(=O)N3CC)cc(OCC)c1OCC | 0.00461 µM [rising, full curve, poor fit] | 
15 | Cc1cccc(C)c1-n1cccc1/C=C1\SC(=S)N(c2cccc(C(=O)O)c2)C1=O | 7.94 µM [falling, partial curve, poor fit] | 
16 | COc1ccc(NC(=O)c2cc(-c3cccs3)on2)c(OC)c1 | 3.16 µM [rising, single point] | 
17 | COC(=O)c1ccc(C(=O)OC)c(NC(=O)CN2CCCCC2)c1 | 0.1 µM [rising, full curve, poor fit] | 
18 | CC(C)CNS(=O)(=O)c1ccc(C(=O)Nc2ccc3c(c2)OCO3)cc1 | 12.6 µM [falling, partial curve, poor fit] | 
19 | FC(F)Sc1ccc(NC(=S)NC2CCCC2)cc1 | 11.2 µM [falling, single point] | 
20 | Cc1ccc(NCCC(=O)c2cccs2)cc1C | 35.5 µM [falling, single point] | 

As entered above:
AC50 [1] with `CCC(=Nc1ccccc1O)C1=C(O)CC(c2ccccc2)CC1=O` (stereo not drawn) is entered as 11.2 µM [falling, partial curve]
AC50 [1] with `CCc1nnc(N/N=C/c2cc(Br)c(O)cc2O)n1N` is entered as 35.5 µM [falling, single point]
AC50 [1] with `Cc1ccc(-c2ccc(/C=N/O)o2)cc1[N+](=O)[O-]` is entered as 2.51 µM [rising, full curve]

Going on with the list.

Row | Structure (SMILES) | AC50 [1] | AC50 [2]
21 | O=C(Nc1ccc2c(c1)OCO2)C1CCN(C(=O)CSc2ncnc3ccccc23)CC1 | 22.4 µM [falling, single point] | 
22 | COc1ccc(C(C)=NNc2ccc([N+](=O)[O-])cc2S(=O)(=O)Nc2ccccc2C(=O)O)c(OC)c1 | 23.1 µM [rising, single point] | 
23 | CC(/C=N/NC(=O)c1ccccn1)=C\c1ccco1 | 11.2 µM [falling, partial curve, poor fit] | 
24 | CCOc1ccc(-c2cccc(NS(=O)(=O)c3ccc([N+](=O)[O-])cc3)c2)nn1 | 2.31 µM [falling, single point] | 
25 | O=C(Nc1ccc(NC(=O)c2cccs2)cc1)c1ccc2ccccc2c1 | 11.2 µM [rising, partial curve, poor fit] | 
26 | Cc1ccc(S(=O)(=O)NCC2NCCc3ccccc32)cc1 (stereo not drawn) | 0.794 µM [falling, full curve] | 
27 | Cn1c(N)c(C(=O)COC(=O)c2ccccc2C(=O)c2ccc(Cl)cc2)c(=O)n(C)c1=O |  | 1.16 µM [rising, full curve, poor fit]
28 | O=c1c2ccccc2sn1-c1ccccc1 | 23.1 µM [falling, single point] | 25.9 µM [rising, single point]
29 | Cc1nc(-c2ccccc2)cn2c1nc1ccccc12 | 4.11 µM [falling, full curve] | 20.6 µM [rising, partial curve, poor fit]
30 | COc1cccc(C2=NOC(C(=O)Nc3ccc4c(c3)OCO4)C2)c1OC (stereo not drawn) | 7.08 µM [falling, partial curve] | 
31 | COCCCNc1ncnc2c1cnn2-c1ccc(F)cc1 | 14.1 µM [falling, partial curve] | 
32 | Cn1cccc1C(=O)C(=O)Nc1ccccc1 | 10 µM [falling, partial curve, poor fit] | 
33 | COc1ccc(N=C2S/C(=C\c3ccc(N4CCOCC4)o3)C(=O)N2CCc2c[nH]c3ccccc23)cc1 | 35.5 µM [rising, single point] | 17.8 µM [falling, single point]
34 | C/C(=N\NC(=O)COc1ccccc1F)c1cc2ccccc2o1 | 0.517 µM [rising, full curve, poor fit] | 
35 | COc1cc(-c2nnc(CSc3nc4ccccc4s3)o2)cc(OC)c1OC | 35.5 µM [falling, single point] | 
36 | Cc1[nH]nc(Nc2ccc(C(C)C)cc2)c1[N+](=O)[O-] | 0.501 µM [rising, full curve, poor fit] | 
37 | CCn1c(=O)c(C(=O)Nc2ncccc2C)c(O)c2ccccc21 | 7.94 µM [falling, partial curve, poor fit] | 
38 | COc1ccc(NC(=O)CC2C(=O)N(c3ccc(OC)cc3)C(=S)N2NC(=O)c2cccc(F)c2)cc1 (stereo not drawn) | 5.8 µM [rising, single point] | 
39 | Nc1c(C(=O)NCCN2CCOCC2)c2nc3ccccc3nc2n1CCc1ccccc1 | 35.5 µM [falling, single point] | 
